Test results from PMC10189802.

What was measured:
Assay in all cases: EMSA
[1] = test system: MBP-SlWRKY30 + MBP-SlWRKY81; conditions: recombinant protein
[2] = test system: MBP-SlWRKY30 (Solanum lycopersicum); conditions: recombinant protein; protein details: N-terminal MBP (pMAL-c4X)
[3] = biological target: T1, MBP-SlWRKY81 (Solanum lycopersicum) (UniProt A0A3Q7I1L3); conditions: recombinant protein; protein details: N-terminal MBP (pMAL-c4X)
T1 sequence (looked up, limits assumed): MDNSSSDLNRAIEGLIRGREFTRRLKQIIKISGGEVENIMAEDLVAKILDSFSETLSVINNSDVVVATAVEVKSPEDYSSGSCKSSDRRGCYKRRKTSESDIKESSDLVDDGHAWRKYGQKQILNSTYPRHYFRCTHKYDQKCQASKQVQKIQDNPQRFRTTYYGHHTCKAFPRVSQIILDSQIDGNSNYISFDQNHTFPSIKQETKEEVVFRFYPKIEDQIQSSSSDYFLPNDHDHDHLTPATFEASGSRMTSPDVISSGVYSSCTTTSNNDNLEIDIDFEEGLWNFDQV

| Sequence | binding result [1] | binding result [2] | binding result [3] |
| --- | --- | --- | --- |
| CTAGTTTCATTCTCAAACTATTGACAGCCCTAAAAACACCCTTTTACT (double strand) [SlPR-STH2b probe 1 WT] | binds | binds | binds |
| GATCGAATTATAATTGGTCACGTCATCATTTTTCAATAAA (double strand) [SlPR-STH2c probe 2 WT] | – | binds | binds |
| TTTACATGATATAGTTAGACTTGACATAAAATTTAAGAAA (double strand) [SlPR-STH2b probe 2 WT] | – | binds | binds |
| TTTGATAACGTGACCGAGTTACAATTGGCCACGTGTCAAAAA (double strand) [SlPR-STH2c probe 1 WT] | binds | binds | binds |
| TAGTTTCGACTCTAACTATGGATCCTGACACGGTTTAACTTATTC (double strand) [SlPR-STH2d probe 1 WT] | binds | binds | binds |
| CATGTTTAGTTGACTTATATGTTTTCTAAATAGATTTATT (double strand) [SlPR-STH2d probe 2 WT] | – | binds | binds |
| ACTGACGACTGAAACATATTAAAGAAACAGATCCAACGCAGTCAACTGAC (double strand) [SlPR-STH2a probe 1 WT] | binds | binds | binds |
| ATCGATTGACATCTGTTCTCCCATATTTAATTCGTCATTGAGGTTTGCTT (double strand) [SlPR-STH2a probe 2 WT] | – | binds | binds |

Construct, isoform or probe ends are uncertain for at least one entry. For some assays here: Tags and fusion partners may be left off the protein sequences shown.
